Our source for the binding values is article PMC11508090.

Protein sequences, listed by entry. Tags and fused reporters are not part of them.
UniProt P51979: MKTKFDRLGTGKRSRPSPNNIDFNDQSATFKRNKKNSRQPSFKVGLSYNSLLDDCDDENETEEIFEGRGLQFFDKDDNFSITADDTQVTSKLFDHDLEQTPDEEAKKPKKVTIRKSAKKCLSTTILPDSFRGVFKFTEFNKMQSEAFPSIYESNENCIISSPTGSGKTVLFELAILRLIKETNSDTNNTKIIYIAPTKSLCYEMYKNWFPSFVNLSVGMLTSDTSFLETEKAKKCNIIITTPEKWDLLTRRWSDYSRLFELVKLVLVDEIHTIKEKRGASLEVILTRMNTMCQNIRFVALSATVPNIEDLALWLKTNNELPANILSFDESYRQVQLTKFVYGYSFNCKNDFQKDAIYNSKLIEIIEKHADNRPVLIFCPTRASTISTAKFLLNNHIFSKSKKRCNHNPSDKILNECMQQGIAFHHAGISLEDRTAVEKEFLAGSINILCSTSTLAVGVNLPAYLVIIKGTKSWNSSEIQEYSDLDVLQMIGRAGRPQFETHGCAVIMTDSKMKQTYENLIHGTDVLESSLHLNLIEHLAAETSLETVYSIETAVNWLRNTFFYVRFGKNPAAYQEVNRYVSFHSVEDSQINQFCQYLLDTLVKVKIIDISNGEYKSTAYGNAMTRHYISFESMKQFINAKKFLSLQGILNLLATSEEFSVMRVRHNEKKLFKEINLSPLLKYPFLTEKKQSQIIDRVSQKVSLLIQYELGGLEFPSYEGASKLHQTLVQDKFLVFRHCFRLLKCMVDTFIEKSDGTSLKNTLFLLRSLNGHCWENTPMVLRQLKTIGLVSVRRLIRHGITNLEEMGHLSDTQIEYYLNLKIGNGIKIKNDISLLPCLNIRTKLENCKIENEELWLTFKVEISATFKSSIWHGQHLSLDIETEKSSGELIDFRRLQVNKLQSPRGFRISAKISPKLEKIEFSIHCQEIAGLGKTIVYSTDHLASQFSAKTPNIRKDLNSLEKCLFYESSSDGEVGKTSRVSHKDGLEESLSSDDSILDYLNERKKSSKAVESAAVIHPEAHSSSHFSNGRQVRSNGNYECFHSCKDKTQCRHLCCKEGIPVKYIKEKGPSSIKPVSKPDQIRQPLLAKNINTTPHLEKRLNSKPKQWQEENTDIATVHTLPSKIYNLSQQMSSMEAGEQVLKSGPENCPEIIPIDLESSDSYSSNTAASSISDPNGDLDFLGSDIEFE

These are yes or no findings as the source states them, for the method shown. In cells and extracts the contact can be indirect. A yes stands for co-enrichment or nearness to the bait. Other partners may have been found. For some of these results: No binding means not detected with the bait.

What all share (experiment): proximity labelling; eleven TurboID fusion strains (ndt80, homozygous) and a no-TurboID control, ~24 h sporulation, two replicates; TCA extract, streptavidin-sepharose pull-down, trypsin, UPLC-MS/MS; targets = in both replicates and in neither control
Experiment [1] deals with Mer3-TurboID (S. cerevisiae) (UniProt P51979).
The target of experiment [2] is T1, Mlh3-TurboID (S. cerevisiae) (UniProt Q12083).
T1 sequence: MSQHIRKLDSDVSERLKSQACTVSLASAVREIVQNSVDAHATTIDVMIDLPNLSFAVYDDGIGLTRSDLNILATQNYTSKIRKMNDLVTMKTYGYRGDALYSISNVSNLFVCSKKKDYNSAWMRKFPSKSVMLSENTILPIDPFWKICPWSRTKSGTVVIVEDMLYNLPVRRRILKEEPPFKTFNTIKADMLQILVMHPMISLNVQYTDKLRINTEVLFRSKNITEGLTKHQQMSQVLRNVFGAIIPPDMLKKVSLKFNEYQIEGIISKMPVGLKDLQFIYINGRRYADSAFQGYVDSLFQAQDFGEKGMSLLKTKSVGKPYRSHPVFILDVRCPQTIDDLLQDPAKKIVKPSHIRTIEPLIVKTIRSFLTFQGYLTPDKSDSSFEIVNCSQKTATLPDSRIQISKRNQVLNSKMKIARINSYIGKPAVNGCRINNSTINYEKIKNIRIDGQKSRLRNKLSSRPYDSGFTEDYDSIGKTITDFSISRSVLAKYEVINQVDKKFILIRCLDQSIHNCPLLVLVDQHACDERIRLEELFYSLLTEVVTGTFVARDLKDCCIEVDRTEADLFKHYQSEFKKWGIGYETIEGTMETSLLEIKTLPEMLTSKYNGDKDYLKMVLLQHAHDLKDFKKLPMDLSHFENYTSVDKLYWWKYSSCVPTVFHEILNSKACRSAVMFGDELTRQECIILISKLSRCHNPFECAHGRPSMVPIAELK

Experiment [3] concerns the target T2, Msh5-TurboID (S. cerevisiae) (UniProt Q12175).
T2 sequence: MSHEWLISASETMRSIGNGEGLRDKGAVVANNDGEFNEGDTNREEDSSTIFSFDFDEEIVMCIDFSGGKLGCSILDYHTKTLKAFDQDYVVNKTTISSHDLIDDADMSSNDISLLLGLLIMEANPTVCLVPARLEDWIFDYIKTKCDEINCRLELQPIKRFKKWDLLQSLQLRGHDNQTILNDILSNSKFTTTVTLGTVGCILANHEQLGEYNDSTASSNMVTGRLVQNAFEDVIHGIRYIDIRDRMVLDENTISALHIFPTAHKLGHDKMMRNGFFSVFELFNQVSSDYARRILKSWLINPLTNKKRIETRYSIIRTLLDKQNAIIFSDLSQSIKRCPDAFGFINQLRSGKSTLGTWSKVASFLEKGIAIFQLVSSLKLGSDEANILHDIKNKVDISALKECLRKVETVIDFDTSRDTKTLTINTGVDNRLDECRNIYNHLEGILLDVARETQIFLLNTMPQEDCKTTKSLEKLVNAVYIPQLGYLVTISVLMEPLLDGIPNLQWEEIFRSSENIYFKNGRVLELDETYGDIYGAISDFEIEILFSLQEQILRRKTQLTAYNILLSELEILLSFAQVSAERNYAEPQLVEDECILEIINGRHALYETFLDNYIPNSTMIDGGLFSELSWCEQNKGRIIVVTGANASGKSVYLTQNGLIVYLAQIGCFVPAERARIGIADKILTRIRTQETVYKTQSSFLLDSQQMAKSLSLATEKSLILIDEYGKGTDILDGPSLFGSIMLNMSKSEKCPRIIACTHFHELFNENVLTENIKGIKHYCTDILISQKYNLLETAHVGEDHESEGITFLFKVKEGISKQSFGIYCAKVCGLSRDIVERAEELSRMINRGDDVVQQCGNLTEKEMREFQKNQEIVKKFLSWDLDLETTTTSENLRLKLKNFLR

Experiment [4] addresses T3, TurboID-Gmc2 (S. cerevisiae) (UniProt Q06201).
T3 sequence: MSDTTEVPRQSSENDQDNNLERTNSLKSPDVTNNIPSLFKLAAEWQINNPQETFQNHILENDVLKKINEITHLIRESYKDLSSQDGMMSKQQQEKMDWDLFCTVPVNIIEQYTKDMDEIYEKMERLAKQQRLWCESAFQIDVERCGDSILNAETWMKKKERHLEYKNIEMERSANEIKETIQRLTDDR

Experiment [5] deals with Zip4iTurboID (S. cerevisiae).

B1: Ecm11 (protein, UniProt Q04110 1-302)
chain: MTVIKTEPTTEVTLYSPPSKESLSKDDAHRKKQNNKPPSSINSRSGPNKHKLAAKAPEKKINNTDKQDLSAFLLNPSLIVKPSESKKKENIVAYNDTPGIKTEHTAFQPLTPISKKRALKEKAASEKCDSFDLSRDEKPYIQKKSKTLSSVTEINSSEYKLSLNGENTSSPAKEKSQEPIENPGSYQKTRNYLFEKPDPLDTCLQDYSSMLPSNVAEEDQEYFISVADSTLEEWTNKGQEIIDQQFQLYQEIIKKRIELSYKFKGIISVINDRADALEEQGQQLEGKIKKVKTLANEILNII
As for B1, the binding result was “binds” in experiment [1]; “no binding” in experiment [2]; “binds” in experiment [3]; “binds” in experiment [4]; “binds” in experiment [5].

B2: Zip1 (protein, UniProt P31111 1-875)
chain: MSNFFRDSSMGFKPRPNIFAKLRVRDVDSDSSANTVVENSSNCLDVGSSIEGDDTFKKPHKTSTEQELITSMSLSQRNHGYSDDMEIGSPKKTTSTDQYNRILKNDVAAIENDTDEDFEITEVREVSEGVAKETKESHGDPNDSETTLKDSKMHEYTMTNGKAPLHTSINNSSTSSNDVLLEAFTNTQRICSNLKQELQKQQQDNAKLKVRLQSYASNSDKINEKVGKYKSCLETLQERIATLTSHKNNQETKLKDLRQNHQLYQRRISGFKTSIENLNKTINDLGKNKKEADAELMKKGKEIEYLKRELDDCSGQLSEEKIKNSSLIQEMGKNREEMIKSIENFFSEDKAHHLLQFNKFEERVHDLFEKKLQKHFDVAKDTLNVGLRNTTVELSSNTETMLKQQYEDIKENLEQKMSSSKDEMAKTINELSVTQKGLIMGVQEELLTSSGNIQTALVSEMNNTRQELLDDASQTAKNYASLENLVKAYKAEIVQSNEYEERIKHLESERSTLSSQKNQIISSLGTKEAQYEDLVKKLEAKNIEISQISGKEQSLTEKNENLSNELKKVQDQLEKLNNLNITTKSNYENKISSQNEIVKALVSENDTLKQRIQQLVEIKENEQKDHTTKLEAFQKNNEQLQKLNVEVVQLKAHELELEEQNRHLKNCLEKKETGVEESLSDVKTLKQQVIVLKSEKQDITAEKLELQDNLESLEEVTKNLQQKVQSQKRELEQKIKELEEIKNHKRNEPSKKGTQNFTKPSDSPKKNATTSNLFPNNSAAIHSPMKKCPKVDHISKSRINSSKETSKFNDEFDLSSSSNDDLELTNPSPIQIKPVRGKIKKGSNCMKPPISSRKKLLLVEDEDQSLKISKKRRRK
Take B2: the binding result in experiment [1] was “binds”; in experiment [2], “no binding”; in experiment [3], “binds”; in experiment [4], “no binding”; in experiment [5], “binds”.
